Values quoted from earlier work, collected in EP0813412B1, “GEL FOR THE LOCAL HORMONOTHERAPY OF VAGINAL DRYNESS” (priority 1995, dated 1997).
Some of these results come from one statement about several compounds together. For at least one compound, name, drawing or mass did not settle the structure.

Tested on: récepteurs à haute affinité pour l'estradiol au niveau de l'épithélium vaginal
Conditions: vaginal epithelium receptors, radiolabelled estradiol; cited from earlier work

Structure (SMILES) | affinité (rank order)
C[C@]12CC[C@@H]3c4ccc(O)cc4CC[C@H]3[C@@H]1C[C@@H](O)[C@@H]2O [estriol] | 17β-estradiol > estriol > estrone
C[C@]12CC[C@@H]3c4ccc(O)cc4CC[C@H]3[C@@H]1CCC2=O [estrone] | 17β-estradiol > estriol > estrone
